From article PMC11655556
Results are given in words; binding and its absence hold for the method and conditions named. Binding seen in cells or lysates may run through a third protein. Here binding means that the protein was enriched with, or labelled near, the bait; the list need not be complete.

Biological target: PDSS2-Del2 (prenyl diphosphate synthase subunit 2 with exon 2 deletion) (human)
Assay: affinity purification with mass spectrometry; Co-IP with PDSS2 antibodies from lysates of 8024 and Huh7 cells with PDSS2-Del2 overexpression; pull-down samples analysed by mass spectrometry

B1: SKOR1 (SKI family transcriptional corepressor 1) (protein, UniProt P84550 1-965)
chain: MALLCGLGQVTLRIWVSLPSQSENGIGFLAARAFLRSGGMEALTTQLGPGREGSSSPNSKQELQPYSGSSALKPNQVGETSLYGVPIVSLVIDGQERLCLAQISNTLLKNYSYNEIHNRRVALGITCVQCTPVQLEILRRAGAMPISSRRCGMITKREAERLCKSFLGEHKPPKLPENFAFDVVHECAWGSRGSFIPARYNSSRAKCIKCGYCSMYFSPNKFIFHSHRTPDAKYTQPDAANFNSWRRHLKLSDKSATDELSHAWEDVKAMFNGGTRKRTFSLQGGGGGGANGGSGGQGKGGAGGGGGGGPGCGAEMAPGPPPHKSLRCGEDEAAGPPGPPPPHPQRGLGLATGASGPAGPGGPGGGAGVRSYPVIPVPSKGFGLLQKLPPPLFPHPYGFPTAFGLCPKKDDPVLGAGEPKGGPGTGSGGGGAGTGGGAGGPGASHLPPGAGAGPGGGAMFWGHQPSGAAKDAAAVAAAAAAATVYPTFPMFWPAAGSLPVPSYPAAQSQAKAVAAAVAAAAAAAAAAAGSGAPEPLDGAEPAKESGLGAEERCPSALSRGPLDEDGTDEALPPPLAPLPPPPPPPARKGSYVSAFRPVVKDTESIAKLYGSAREAYGAGPARGPGPGAGSGGYVSPDFLSEGSSSYNSASPDVDTADEPEVDVESNRFPDDEDAQEETEPSAPSAGGGPDGEQPTGPPSATSSGADGPANSPDGGSPRPRRRLGPPPAGRPAFGDLAAEDLVRRPERSPPSGGGGYELREPCGPLGGPAPAKVFAPERDEHVKSAAVALGPAASYVCTPEAHEPDKEDNHSPADDLETRKSYPDQRSISQPSPANTDRGEDGLTLDVTGTHLVEKDIENLAREELQKLLLEQMELRKKLEREFQSLKDNFQDQMKRELAYREEMVQQLQIVRDTLCNELDQERKARYAIQQKLKEAHDALHHFSCKMLTPRHCTGNCSFKPPLLP
B1 was tested, and the binding was “binds”.
